Values quoted from earlier work as cited in patent US7074773B2, “Pharmaceutical composition for diabetic neuropathy” (priority 2001, dated 2006).
Where a name gives a salt, the structure may show the parent alone. The name of at least one read-out is uncertain.

Details: oral vs intravenous; cited from earlier work

C[N+](C)(C)CCOP(=O)(O)OP(=O)([O-])OC[C@H]1O[C@@H](n2ccc(N)nc2=O)[C@H](O)[C@@H]1O [CDP-choline, cytidine 5′-diphosphocholine monosodium salt]
bioavailability by oral administration compared with intravenous administration: almost the same level of bioavailability
